These results are taken from PMC6115391.

The chains behind the UniProt entries cited, without tags or fusion partners. Residues count along the entry.
UniProt P05067, residues 18-770: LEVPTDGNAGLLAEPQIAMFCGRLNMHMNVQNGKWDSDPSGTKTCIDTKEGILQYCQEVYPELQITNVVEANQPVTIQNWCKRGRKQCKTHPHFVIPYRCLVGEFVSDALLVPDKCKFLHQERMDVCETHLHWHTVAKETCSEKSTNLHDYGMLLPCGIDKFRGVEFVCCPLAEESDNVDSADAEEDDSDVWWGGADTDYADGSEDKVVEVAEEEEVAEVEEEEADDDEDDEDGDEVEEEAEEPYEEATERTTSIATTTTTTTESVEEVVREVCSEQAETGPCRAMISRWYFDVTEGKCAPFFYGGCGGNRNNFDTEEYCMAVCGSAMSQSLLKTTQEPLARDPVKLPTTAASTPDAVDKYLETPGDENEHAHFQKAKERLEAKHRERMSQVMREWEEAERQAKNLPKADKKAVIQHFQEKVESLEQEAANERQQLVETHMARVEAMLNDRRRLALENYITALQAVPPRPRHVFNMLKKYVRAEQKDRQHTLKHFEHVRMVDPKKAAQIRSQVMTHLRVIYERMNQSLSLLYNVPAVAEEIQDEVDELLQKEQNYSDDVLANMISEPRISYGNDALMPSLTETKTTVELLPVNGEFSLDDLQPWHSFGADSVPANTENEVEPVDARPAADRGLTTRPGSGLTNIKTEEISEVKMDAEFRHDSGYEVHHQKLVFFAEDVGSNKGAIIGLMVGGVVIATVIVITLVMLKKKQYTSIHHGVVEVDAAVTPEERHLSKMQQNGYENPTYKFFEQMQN
UniProt P62993: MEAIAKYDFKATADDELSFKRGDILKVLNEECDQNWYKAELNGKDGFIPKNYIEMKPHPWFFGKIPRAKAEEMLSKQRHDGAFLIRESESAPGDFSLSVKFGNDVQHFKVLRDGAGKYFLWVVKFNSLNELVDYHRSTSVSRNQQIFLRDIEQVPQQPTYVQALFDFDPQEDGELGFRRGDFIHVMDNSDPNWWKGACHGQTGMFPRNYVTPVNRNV

This experiment addresses amyloid-β precursor protein (APP) (human (endogenous in iPSC-derived NSCs)) (UniProt P05067). As to the kind of experiment: co-IP; endogenous proteins in lysates of human iPSC-derived NSCs (PS1+/+, PS1+/-, PS1-/-); TNE buffer (25 mM Tris-HCl pH 7.6, 150 mM NaCl, 1 mM EDTA) with 1% Triton X-100; primary antibody (anti-PI3Kp85 or anti-APP) overnight at 4 °C, Protein A/G magnetic beads; western blotting. Background: In western blotting, separated proteins are transferred to a membrane and probed.

No constants are given. Whether binding was seen depends on the method and setting. Binding seen in cells or lysates may run through a third protein. Some entries that bind do so weakly or less than the wild type.

In the case of GRB2 (from UniProt P62993 1-217), the binding entry was “binds”.
